± gives the standard deviation of the averaged measurements. Most values lie within the scatter of the assay; repeated measurements hardly agree.

Sequences of proteins named here, by UniProt entry; tags and fusion partners are left off. A change or cut given only in a name is not applied to a line headed by its entry.
UniProt O94885: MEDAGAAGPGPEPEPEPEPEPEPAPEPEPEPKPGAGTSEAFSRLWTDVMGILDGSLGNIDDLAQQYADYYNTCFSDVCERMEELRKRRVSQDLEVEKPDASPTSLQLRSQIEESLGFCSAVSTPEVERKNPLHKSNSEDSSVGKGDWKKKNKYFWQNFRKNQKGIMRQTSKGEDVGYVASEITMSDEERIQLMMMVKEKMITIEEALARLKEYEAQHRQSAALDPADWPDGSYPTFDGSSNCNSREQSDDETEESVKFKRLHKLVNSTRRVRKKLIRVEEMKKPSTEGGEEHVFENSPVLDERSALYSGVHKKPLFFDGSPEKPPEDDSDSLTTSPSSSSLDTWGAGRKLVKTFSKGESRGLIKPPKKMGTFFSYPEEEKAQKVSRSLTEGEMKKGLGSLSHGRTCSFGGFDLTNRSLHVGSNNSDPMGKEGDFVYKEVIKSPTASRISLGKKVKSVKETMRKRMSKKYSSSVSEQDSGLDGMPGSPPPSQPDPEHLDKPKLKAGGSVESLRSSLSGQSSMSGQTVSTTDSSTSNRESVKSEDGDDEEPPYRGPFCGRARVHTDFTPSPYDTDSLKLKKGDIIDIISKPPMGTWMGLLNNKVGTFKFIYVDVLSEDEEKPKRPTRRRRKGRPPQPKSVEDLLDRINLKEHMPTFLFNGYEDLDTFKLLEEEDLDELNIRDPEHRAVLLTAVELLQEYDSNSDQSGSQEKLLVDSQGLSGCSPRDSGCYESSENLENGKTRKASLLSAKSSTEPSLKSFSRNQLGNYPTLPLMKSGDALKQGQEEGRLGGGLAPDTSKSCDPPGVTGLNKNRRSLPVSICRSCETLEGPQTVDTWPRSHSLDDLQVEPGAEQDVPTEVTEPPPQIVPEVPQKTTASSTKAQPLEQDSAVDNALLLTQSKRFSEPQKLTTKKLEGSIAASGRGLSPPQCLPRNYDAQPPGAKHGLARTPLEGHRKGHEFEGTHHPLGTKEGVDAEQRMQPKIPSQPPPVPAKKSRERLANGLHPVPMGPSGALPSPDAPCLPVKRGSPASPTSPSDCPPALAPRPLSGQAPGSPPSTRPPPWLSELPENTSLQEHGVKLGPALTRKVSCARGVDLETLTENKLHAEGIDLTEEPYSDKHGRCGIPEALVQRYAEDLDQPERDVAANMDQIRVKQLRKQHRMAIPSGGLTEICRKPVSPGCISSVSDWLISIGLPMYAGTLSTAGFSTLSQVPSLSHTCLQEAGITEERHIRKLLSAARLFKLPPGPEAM
UniProt P47712: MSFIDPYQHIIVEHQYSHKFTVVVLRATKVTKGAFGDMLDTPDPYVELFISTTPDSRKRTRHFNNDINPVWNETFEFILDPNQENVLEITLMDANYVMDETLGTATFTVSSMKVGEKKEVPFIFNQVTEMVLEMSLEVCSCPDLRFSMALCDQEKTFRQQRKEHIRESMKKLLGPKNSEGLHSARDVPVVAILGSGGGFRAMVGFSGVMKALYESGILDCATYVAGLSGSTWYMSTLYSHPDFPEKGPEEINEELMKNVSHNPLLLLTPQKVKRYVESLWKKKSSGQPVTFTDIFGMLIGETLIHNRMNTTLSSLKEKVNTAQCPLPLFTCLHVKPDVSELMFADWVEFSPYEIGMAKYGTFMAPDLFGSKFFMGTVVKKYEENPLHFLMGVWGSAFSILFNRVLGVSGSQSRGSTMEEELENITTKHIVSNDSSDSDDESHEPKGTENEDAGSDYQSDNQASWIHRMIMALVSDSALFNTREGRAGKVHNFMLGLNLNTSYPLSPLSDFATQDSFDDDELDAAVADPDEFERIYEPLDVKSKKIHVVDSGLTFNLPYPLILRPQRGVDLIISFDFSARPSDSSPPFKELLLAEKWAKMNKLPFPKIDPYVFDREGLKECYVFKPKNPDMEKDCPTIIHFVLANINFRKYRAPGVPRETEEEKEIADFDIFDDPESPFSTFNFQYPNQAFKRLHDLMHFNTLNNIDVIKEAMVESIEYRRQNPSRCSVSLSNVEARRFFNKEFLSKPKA
UniProt Q9Y4F1: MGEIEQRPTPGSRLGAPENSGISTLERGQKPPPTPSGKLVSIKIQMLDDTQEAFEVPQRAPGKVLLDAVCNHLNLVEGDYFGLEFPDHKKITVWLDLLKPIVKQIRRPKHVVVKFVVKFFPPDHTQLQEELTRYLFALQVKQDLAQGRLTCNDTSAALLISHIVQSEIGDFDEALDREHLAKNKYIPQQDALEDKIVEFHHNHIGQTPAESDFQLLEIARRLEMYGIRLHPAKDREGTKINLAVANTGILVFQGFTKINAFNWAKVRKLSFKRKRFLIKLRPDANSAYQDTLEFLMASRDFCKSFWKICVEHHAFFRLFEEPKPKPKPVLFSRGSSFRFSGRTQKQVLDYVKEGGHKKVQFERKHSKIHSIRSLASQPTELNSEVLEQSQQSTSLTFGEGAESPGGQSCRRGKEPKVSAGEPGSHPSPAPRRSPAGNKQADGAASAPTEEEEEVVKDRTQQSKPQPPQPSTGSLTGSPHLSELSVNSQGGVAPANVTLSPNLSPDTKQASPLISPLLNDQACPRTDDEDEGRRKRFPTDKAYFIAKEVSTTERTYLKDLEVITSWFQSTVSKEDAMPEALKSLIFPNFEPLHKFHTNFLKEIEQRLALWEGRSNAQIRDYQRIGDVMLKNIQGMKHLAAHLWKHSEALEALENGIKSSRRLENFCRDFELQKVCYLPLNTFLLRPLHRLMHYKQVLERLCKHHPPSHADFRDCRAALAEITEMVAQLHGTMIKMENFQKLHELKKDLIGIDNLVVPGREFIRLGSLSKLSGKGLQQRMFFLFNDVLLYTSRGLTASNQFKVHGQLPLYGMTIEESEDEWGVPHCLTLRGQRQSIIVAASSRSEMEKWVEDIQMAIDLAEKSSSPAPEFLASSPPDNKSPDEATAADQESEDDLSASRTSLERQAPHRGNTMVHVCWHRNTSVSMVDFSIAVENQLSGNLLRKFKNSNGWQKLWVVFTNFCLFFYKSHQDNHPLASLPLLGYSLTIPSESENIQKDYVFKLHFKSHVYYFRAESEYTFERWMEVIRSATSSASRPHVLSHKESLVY
UniProt P13861, whole entry, looked up: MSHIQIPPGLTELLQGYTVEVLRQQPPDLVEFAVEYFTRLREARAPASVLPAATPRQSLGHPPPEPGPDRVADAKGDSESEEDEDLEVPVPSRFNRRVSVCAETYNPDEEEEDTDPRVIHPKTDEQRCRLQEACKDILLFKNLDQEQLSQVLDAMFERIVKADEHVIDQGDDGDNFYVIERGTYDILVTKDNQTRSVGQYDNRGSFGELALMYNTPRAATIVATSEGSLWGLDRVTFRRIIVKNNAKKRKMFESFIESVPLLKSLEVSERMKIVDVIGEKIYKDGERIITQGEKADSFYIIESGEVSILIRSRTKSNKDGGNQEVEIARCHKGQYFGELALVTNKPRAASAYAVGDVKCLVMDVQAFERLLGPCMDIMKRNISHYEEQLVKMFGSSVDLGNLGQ
UniProt Q9Y2W1: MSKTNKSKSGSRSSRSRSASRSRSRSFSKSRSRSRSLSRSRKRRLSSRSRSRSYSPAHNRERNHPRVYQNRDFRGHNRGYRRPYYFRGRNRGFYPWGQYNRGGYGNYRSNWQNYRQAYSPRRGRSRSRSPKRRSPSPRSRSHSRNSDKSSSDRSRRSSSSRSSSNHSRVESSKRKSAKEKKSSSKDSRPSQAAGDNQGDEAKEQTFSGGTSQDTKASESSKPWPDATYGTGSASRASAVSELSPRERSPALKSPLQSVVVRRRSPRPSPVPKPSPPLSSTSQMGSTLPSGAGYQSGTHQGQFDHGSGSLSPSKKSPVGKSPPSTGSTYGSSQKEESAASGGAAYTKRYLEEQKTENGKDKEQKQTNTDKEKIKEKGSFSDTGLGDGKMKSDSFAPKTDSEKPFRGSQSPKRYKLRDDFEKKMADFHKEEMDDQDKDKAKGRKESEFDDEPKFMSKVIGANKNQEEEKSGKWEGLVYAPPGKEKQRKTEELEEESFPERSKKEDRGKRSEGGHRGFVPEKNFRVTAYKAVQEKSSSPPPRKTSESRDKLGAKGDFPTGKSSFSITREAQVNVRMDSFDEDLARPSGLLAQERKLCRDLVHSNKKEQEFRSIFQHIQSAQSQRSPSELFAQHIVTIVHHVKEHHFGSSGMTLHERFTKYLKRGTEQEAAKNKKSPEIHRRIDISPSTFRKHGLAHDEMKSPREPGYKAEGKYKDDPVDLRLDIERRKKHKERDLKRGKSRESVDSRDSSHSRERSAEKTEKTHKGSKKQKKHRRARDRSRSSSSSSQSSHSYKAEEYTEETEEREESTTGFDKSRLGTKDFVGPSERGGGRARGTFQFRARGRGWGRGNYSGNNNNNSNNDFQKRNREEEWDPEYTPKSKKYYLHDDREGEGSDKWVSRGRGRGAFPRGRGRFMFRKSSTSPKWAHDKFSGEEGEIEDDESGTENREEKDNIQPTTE
UniProt Q9UGY1: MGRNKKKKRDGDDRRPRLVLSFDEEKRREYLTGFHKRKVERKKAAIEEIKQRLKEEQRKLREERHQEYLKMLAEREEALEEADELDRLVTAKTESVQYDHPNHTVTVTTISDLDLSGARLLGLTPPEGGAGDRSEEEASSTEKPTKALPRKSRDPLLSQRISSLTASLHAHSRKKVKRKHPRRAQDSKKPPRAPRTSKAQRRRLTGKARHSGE
UniProt Q12929, whole entry: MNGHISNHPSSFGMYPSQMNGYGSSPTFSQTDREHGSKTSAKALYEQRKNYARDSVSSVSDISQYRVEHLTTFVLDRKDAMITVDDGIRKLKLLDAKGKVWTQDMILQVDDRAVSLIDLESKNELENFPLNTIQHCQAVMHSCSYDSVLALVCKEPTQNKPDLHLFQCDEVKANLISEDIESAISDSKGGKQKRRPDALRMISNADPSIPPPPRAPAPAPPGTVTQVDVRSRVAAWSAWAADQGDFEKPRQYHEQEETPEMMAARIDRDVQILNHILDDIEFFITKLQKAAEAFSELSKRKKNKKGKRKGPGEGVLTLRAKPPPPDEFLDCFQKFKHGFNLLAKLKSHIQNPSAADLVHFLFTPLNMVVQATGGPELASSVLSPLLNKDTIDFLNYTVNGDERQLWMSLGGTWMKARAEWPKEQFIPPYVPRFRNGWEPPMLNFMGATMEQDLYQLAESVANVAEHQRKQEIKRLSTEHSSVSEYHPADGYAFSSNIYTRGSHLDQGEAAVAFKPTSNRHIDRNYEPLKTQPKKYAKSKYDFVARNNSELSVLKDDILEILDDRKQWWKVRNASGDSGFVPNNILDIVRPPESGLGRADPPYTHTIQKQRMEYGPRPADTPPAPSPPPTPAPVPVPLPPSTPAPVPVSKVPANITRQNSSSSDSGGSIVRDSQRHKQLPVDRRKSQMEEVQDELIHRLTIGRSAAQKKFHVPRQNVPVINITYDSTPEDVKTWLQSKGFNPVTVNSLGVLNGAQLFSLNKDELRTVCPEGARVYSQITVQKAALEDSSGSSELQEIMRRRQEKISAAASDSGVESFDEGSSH
UniProt O60296: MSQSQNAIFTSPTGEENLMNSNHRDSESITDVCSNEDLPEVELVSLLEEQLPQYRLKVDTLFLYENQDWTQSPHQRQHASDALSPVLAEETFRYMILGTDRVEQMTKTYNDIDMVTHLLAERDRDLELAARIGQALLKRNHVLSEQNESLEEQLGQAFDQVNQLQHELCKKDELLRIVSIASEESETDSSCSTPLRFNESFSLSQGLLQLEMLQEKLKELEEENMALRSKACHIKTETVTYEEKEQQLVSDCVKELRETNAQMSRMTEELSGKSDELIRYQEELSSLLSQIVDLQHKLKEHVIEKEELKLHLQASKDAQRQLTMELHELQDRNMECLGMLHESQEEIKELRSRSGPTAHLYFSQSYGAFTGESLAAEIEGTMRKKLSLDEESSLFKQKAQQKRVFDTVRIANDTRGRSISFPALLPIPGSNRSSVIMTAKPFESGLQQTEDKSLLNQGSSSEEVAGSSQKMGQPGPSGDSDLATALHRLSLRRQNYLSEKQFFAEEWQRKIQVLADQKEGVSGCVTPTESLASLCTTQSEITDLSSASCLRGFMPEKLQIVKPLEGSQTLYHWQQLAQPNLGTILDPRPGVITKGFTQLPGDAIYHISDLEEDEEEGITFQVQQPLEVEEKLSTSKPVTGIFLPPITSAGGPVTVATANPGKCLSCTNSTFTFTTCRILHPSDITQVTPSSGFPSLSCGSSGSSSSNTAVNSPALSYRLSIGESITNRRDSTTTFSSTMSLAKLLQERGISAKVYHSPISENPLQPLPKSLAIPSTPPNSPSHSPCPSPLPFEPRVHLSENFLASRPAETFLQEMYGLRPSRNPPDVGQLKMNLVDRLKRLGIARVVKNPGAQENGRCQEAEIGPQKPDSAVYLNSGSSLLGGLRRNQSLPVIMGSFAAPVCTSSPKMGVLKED
UniProt P51858: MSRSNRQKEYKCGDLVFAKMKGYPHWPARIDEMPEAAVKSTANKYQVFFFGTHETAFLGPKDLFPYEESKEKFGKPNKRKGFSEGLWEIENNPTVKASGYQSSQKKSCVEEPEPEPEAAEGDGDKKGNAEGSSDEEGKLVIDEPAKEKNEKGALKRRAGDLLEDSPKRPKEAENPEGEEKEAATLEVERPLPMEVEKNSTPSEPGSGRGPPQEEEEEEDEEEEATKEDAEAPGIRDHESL

Compound in the assay: CC[C@@H](C)Nc1cc(C(=O)N[C@H]2C[C@H]3CC[C@@H](C2)N3c2ccc(C(=O)C3CC3)cn2)c(C)cc1C(N)=O [XL888]
The assay can be described thus: phosphopeptide melting temperature shift (XL888 minus DMSO); higher = stabilised by drug treatment. Conditions: 100 µM; treatment time 2 h; layout: intact cells; SK-Mel 28. How it is done: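 Phospho-TPP in intact SK-Mel 28 cells treated with 100 uM XL888 or DMSO for 2 h, heated at 10 temperatures (37-67 C) for 3 min, soluble fraction TMT10plex-labelled and TiO2 phospho-enriched. Melting curves were fitted per phosphopeptide; the value is the melting point difference (drug minus vehicle) in each of two biological replicates.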
In the case of “MCM3 phosphosite_722 (phosphosite position: 722) (UniProt P25205)”, the “phosphopeptide melting temperature shift” value came out at 0.112 ± 1.3 °C.

For the target “UniProt Q9Y3M2_phosphosite_20 (phosphosite position: 20)”, the “phosphopeptide melting temperature shift” value is 1.27 °C.

For the target “UniProt O43665-3_phosphosite_16 (phosphosite position: 16)”, the “phosphopeptide melting temperature shift” value is 4.62 ± 0.2 °C.

As to “UniProt Q99460-2_phosphosite_311 (phosphosite position: 311)”, the “phosphopeptide melting temperature shift” value was -0.542 ± 1.9 °C.

With “UniProt P85037-2_phosphosite_60 (phosphosite position: 60)”, the “phosphopeptide melting temperature shift” value was found to be 0.841 °C.

On to “SASH1 phosphosite_1028 (phosphosite position: 1028) (UniProt O94885)”, for which the “phosphopeptide melting temperature shift” value was determined as 3.731 ± 0.025 °C.

For “UniProt Q7Z460-2_phosphosite_600 (phosphosite position: 600)”, the “phosphopeptide melting temperature shift” value came out at 1.33 °C.

Turning to “INPP5F phosphosite_827 (phosphosite position: 827) (UniProt Q9Y2H2)”, the “phosphopeptide melting temperature shift” value came to 1.09 °C.

Consider “CTR9 phosphosite_1087 (phosphosite position: 1087) (UniProt Q6PD62)”, for which the “phosphopeptide melting temperature shift” value stood at 1.05 °C.

For “PLA2G4A phosphosite_434 (phosphosite position: 434) (UniProt P47712)”, the “phosphopeptide melting temperature shift” value turned out to be 0.956 ± 0.28 °C.

In the case of “UniProt Q5THJ4-2_phosphosite_1138 (phosphosite position: 1138)”, the “phosphopeptide melting temperature shift” value was 1.24 °C.

For the target “UniProt Q9UPQ0-9_phosphosite_552 (phosphosite position: 552)”, the “phosphopeptide melting temperature shift” value was -1.38 °C.

In the case of “UniProt Q9H1B7_phosphosite_69 (phosphosite position: 69)”, the “phosphopeptide melting temperature shift” value was 2.42 °C.

In the case of “UniProt Q96SB4-4_phosphosite_35 (phosphosite position: 35)”, the “phosphopeptide melting temperature shift” value was determined as 2.02 ± 1 °C.

Regarding “UniProt P49590-2_phosphosite_42 (phosphosite position: 42)”, the “phosphopeptide melting temperature shift” value is 1.13 ± 4.1 °C.

Regarding “FARP1 phosphosite_433 (phosphosite position: 433) (UniProt Q9Y4F1)”, the “phosphopeptide melting temperature shift” value was 1.63 ± 0.58 °C.

For “UniProt O15027-2_phosphosite_891 (phosphosite position: 891)”, the “phosphopeptide melting temperature shift” value stood at 5.66 °C.

In the case of “WDR62 phosphosite_1228 (phosphosite position: 1228) (UniProt O43379)”, the “phosphopeptide melting temperature shift” value was determined as 0.797 °C.

“UniProt Q92538-3_phosphosite_1475 (phosphosite position: 1475)”: the “phosphopeptide melting temperature shift” value is 3.68 ± 1.9 °C.

“PRKAR2A phosphosite_80 (phosphosite position: 80) (UniProt P13861)”: the “phosphopeptide melting temperature shift” value was determined as 0.791 ± 1.4 °C.

As to “PWP1 phosphosite_50 (phosphosite position: 50) (UniProt Q13610)”, the “phosphopeptide melting temperature shift” value was 1.91 ± 0.96 °C.

Take “TRIM56 phosphosite_469 (phosphosite position: 469) (UniProt Q9BRZ2)”: the “phosphopeptide melting temperature shift” value was 0.988 °C.

On to “THRAP3 phosphosite_928 (phosphosite position: 928) (UniProt Q9Y2W1)”, for which the “phosphopeptide melting temperature shift” value is 0.66 ± 0.083 °C.

Take “TOE1 phosphosite_5 (phosphosite position: 5) (UniProt Q96GM8)”: the “phosphopeptide melting temperature shift” value was -2.02 °C.

For the target “UniProt O95628-3_phosphosite_415 (phosphosite position: 415)”, the “phosphopeptide melting temperature shift” value was found to be 0.835 °C.

On to “UniProt Q86YS7_phosphosite_285 (phosphosite position: 285)”, for which the “phosphopeptide melting temperature shift” value was -0.0189 ± 0.59 °C.

For “NOL12 phosphosite_140 (phosphosite position: 140) (UniProt Q9UGY1)”, the “phosphopeptide melting temperature shift” value is -1.43 °C.

For the target “UniProt Q53HC9_phosphosite_320 (phosphosite position: 320)”, the “phosphopeptide melting temperature shift” value is 1.55 ± 1.2 °C.

Consider “LMNA phosphosite_390 (phosphosite position: 390) (UniProt P02545)”, for which the “phosphopeptide melting temperature shift” value was found to be 0.072 °C.

With “UniProt Q12929_phosphosite_685 (phosphosite position: 685)”, the “phosphopeptide melting temperature shift” value was -0.0739 ± 1.2 °C.

As for “MAP4 phosphosite_620 (phosphosite position: 620) (UniProt P27816)”, the “phosphopeptide melting temperature shift” value is -1.56 °C.

As for “UniProt O60296_phosphosite_780 (phosphosite position: 780)”, the “phosphopeptide melting temperature shift” value amounted to 0.469 ± 1.6 °C.

As for “UniProt Q32MZ4-3_phosphosite_88 (phosphosite position: 88)”, the “phosphopeptide melting temperature shift” value amounted to 0.818 ± 0.96 °C.

For the target “C7orf25 phosphosite_212 (phosphosite position: 212) (UniProt Q9BPX7)”, the “phosphopeptide melting temperature shift” value came out at 0.658 °C.

“SAP30 phosphosite_131 (phosphosite position: 131) (UniProt O75446)”: the “phosphopeptide melting temperature shift” value was -0.503 °C.

“UniProt Q9H6Z4-3_phosphosite_32 (phosphosite position: 32)”: the “phosphopeptide melting temperature shift” value is 0.465 °C.

Take “DDX42 phosphosite_185 (phosphosite position: 185) (UniProt Q86XP3)”: the “phosphopeptide melting temperature shift” value is 0.351 ± 1.9 °C.

For the target “SASH1 phosphosite_721 (phosphosite position: 721) (UniProt O94885)”, the “phosphopeptide melting temperature shift” value came to 1.23 ± 0.79 °C.

Consider “OSBP phosphosite_379 (phosphosite position: 379) (UniProt P22059)”, for which the “phosphopeptide melting temperature shift” value worked out at 1.57 °C.

For the target “UniProt Q147X3-2_phosphosite_162 (phosphosite position: 162)”, the “phosphopeptide melting temperature shift” value is -0.0291 °C.

“OSBP phosphosite_382 (phosphosite position: 382) (UniProt P22059)”: the “phosphopeptide melting temperature shift” value stood at 1.57 °C.

Turning to “IWS1 phosphosite_159 (phosphosite position: 159) (UniProt Q96ST2)”, the “phosphopeptide melting temperature shift” value was determined as 1.76 ± 1.5 °C.

As to “NCAPG phosphosite_1015 (phosphosite position: 1015) (UniProt Q9BPX3)”, the “phosphopeptide melting temperature shift” value was 0.698 ± 0.73 °C.

Turning to “CCDC86 phosphosite_18 (phosphosite position: 18) (UniProt Q9H6F5)”, the “phosphopeptide melting temperature shift” value was -1.33 °C.

With “BCL9 phosphosite_917 (phosphosite position: 917) (UniProt O00512)”, the “phosphopeptide melting temperature shift” value is 0.272 ± 0.57 °C.

For “HDGF phosphosite_133 (phosphosite position: 133) (UniProt P51858)”, the “phosphopeptide melting temperature shift” value is 1.02 °C.

As to “UniProt Q00613-2_phosphosite_363 (phosphosite position: 363)”, the “phosphopeptide melting temperature shift” value is 2.51 ± 0.18 °C.

With “UniProt Q66K74-2_phosphosite_733 (phosphosite position: 733)”, the “phosphopeptide melting temperature shift” value was -0.29 ± 0.51 °C.

For the target “UniProt Q8N4C8-4_phosphosite_743 (phosphosite position: 743)”, the “phosphopeptide melting temperature shift” value is 1.43 °C.

For “UniProt Q8TBA6-2_phosphosite_116 (phosphosite position: 116)”, the “phosphopeptide melting temperature shift” value is -1.15 °C.

The values above are taken from the supplement of paper PMC5836539.
